Reference: PubChem BioAssay AID504444 (National Center for Advancing Translational Sciences (NCATS), 2011)
Values joined by “and” are separate entries in the source; they are usually repeats but may differ in a detail not shown here. Equal values may be shown once. Among all 360,000 compounds or so, about 7,500 (2.1%) were called active. The shares of active, inactive and inconclusive entries below differ from those in the screen. The call rests on the fitted dose curve; in most records, active means well fitted inhibition curve with a large enough effect; inconclusive means small, poorly fitted or top-dose-only effect, or effect the other way; inactive means flat fitted curve, though single readings scatter. A potency beside an inconclusive call is a rough fit, not a confirmed value.

Experiment: Nrf2 qHTS screen for inhibitors; further: nearly all actives have a fitted effect of over 60% in size
Details: A549 ARE-Fluc reporter, luciferase luminescence, 18-24 h; series mostly up to 46 µM
In short: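 A549 ARE_Fluc cells (5000/well, 5% FBS OPTI-MEM) pre-incubated 2 h, then treated with compounds 18-24 h at 37C/5% CO2 in concentration-response. CellTiter-Fluor viability read first; BugLite luciferase luminescence after 15 min at room temperature gives Nrf2 activity.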
Potency means the concentration at half of the fitted maximal effect.

Which Potency does the source give for `Cc1ccc(NC(=O)CSc2nnc(-c3ccncc3)n2C)cc1S(=O)(=O)N1CCOCC1` here?
Its Potency is “inactive”.

With `CCCn1cnc2c(sc3nc4c(cc32)CSC(C)(C)C4)c1=O` as the molecule, how does the Potency read?
The Potency was inconclusive: 0.517 µM [activator, full curve, poor fit].

Which Potency does the source give for `Cc1onc(-c2ccccc2)c1C(=O)N/N=C/c1c[nH]c2ccccc12` here?
The Potency was active: 14.6 µM.

With `COc1ccc(C2C3C=CCC(C)C3C(=O)N2Cc2ccccc2)cc1Cl` (stereo not drawn) as the molecule, how does the Potency read?
The Potency was inconclusive: 25.9 µM [falling, single point].

With `Cc1c(NC(=O)c2cccc(-c3cc4ccccc4oc3=O)c2)cccc1-c1nc2ncccc2o1` as the molecule, how does the Potency read?
Its Potency is inconclusive: 2.06 µM [falling, partial curve].

For `CC1CCN(c2ccc(-c3ccc(NC(=O)C(F)(F)F)cc3)nn2)CC1`, which Potency is on record?
Its Potency is inconclusive: 2.31 µM [activator, partial curve].

With `COc1ccc(CN2[C@@H](CC(C)=O)c3cc(C(F)(F)F)ccc3S2(=O)=O)cc1` as the molecule, how does the Potency read?
Its Potency is inconclusive: 1.64 µM [falling, partial curve].

Which Potency does the source give for `CCCn1c(=O)c(C(=O)NCc2ccncc2)c(O)c2ccccc21` here?
The Potency was inconclusive: 18.4 µM [falling, partial curve].

With `Cc1ccc(S(=O)(=O)NCc2ccncc2)cc1C(=O)NCC(C)C` as the molecule, how does the Potency read?
Its Potency is inconclusive: 16.4 µM [falling, partial curve, poor fit].

With `COc1ccc(-c2nnc(SCC(=O)N3CCc4ccccc43)o2)cc1OC` as the molecule, how does the Potency read?
The Potency was “inactive”.

For `CCOc1ccc(C(=O)Nc2ccc3c(c2)OCCO3)cc1`, which Potency is on record?
The Potency was inconclusive: 0.206 µM [activator, full curve, poor fit].

For `O=S(=O)(c1ccccc1)c1nc(-c2ccccc2)oc1N1CCCCC1`, which Potency is on record?
Its Potency is inconclusive: 2.59 µM [falling, full curve, poor fit].

Which Potency does the source give for `COC(=O)CN1C(=S)N(c2ccc(F)cc2)C(=O)C1CC(=O)Nc1ccc(OC)cc1` (stereo not drawn) here?
The Potency was inconclusive: 2.31 µM [falling, partial curve, poor fit].

With `COc1ccccc1Nc1c2c(nc3ccc(NC(=O)c4ccccc4F)cc13)CCCC2` as the molecule, how does the Potency read?
The Potency was inconclusive: 20.6 µM [falling, single point].

With `Cc1nn(Cc2ccc(Cl)cc2)c(C)c1NC(=O)CCCn1nc(C)c([N+](=O)[O-])c1C` as the molecule, how does the Potency read?
The Potency was active: 20.6 µM.

With `O=C(CN1CCCCC1)Nc1cc(Cl)ccc1Oc1ccccc1` as the molecule, how does the Potency read?
The Potency was inconclusive: 3.66 µM [activator, full curve].

For `C/C(=N\NC(=S)NCc1ccccc1)c1ccc2c(c1)OCCO2`, which Potency is on record?
The Potency was inconclusive: 29.1 µM [falling, single point].

For `CC(=O)C1(C)CCC2C3C=C(C)C4=CC(=O)CCC4(C)C3CCC21C` (stereo not drawn), which Potency is on record?
Its Potency is inconclusive: 23.1 µM [falling, single point].

Which Potency does the source give for `CCOc1ccc(/C=N/NC(=O)Nc2ccccc2)cc1` here?
Its Potency is inconclusive: 6.51 µM [activator, partial curve].

For `CC(=O)c1ccccc1OCCOCCOc1ccccc1C(C)=O`, which Potency is on record?
Its Potency is inconclusive: 25.9 µM [falling, single point].

For `COc1ccccc1NC(=O)c1ccc2c(c1)OCO2`, which Potency is on record?
The Potency was inconclusive: 9.2 µM [activator, partial curve].

Which Potency does the source give for `COC(=O)c1sccc1S(=O)(=O)N(CC(=O)NCc1ccc(C)cc1)c1ccc(C)c(C)c1` here?
The Potency was “inactive”.

For `Cc1cc(NC(=O)c2cc(Cl)ccc2Cl)ccc1-c1cc2ccccc2oc1=O`, which Potency is on record?
The Potency was inconclusive: 1.64 µM [falling, full curve].

For `CCOC(=O)C1=C(C)N=C2SCCC(=O)N2C1c1ccc(OCc2ccccc2)c(OC)c1` (stereo not drawn), which Potency is on record?
Its Potency is inconclusive: 29.1 µM [falling, single point].

For `Cc1ccc2nc(N(CCCN(C)C)C(=O)c3ccc4ncsc4c3)sc2c1`, which Potency is on record?
Its Potency is inconclusive: 10.3 µM [activator, partial curve].

Which Potency does the source give for `O=C(O)c1ccc(N/N=C/c2cn(Cc3ccccc3F)c3ccccc23)cc1` here?
Its Potency is inconclusive: 6.51 µM [activator, partial curve].

For `Cn1c(=S)c2[nH]c(SCC3CCCO3)nc2n(C)c1=O` (stereo not drawn), which Potency is on record?
The Potency was inconclusive: 23.1 µM [falling, partial curve, poor fit].

Which Potency does the source give for `O=C(Nc1nccs1)c1sc2cc(Cl)ccc2c1Cl` here?
The Potency was inconclusive: 2.31 µM [activator, partial curve, poor fit].

Which Potency does the source give for `CCN(CC)C(=O)Cn1c(=O)n(Cc2ccc(C(=O)NCCCOC)cc2)c(=O)c2ccccc21` here?
Its Potency is “inactive”.

With `O=C(Nc1ccc(F)cc1F)c1cc(S(=O)(=O)N2CCCCC2)c[nH]1` as the molecule, how does the Potency read?
Its Potency is “inactive”.

With `CC(=O)n1cc(/C=N/NC(=O)c2cccc(O)c2)c2ccccc21` as the molecule, how does the Potency read?
Its Potency is inconclusive: 3.26 µM [activator, full curve, poor fit].

With `CCOc1ccc(NC(=O)Nc2cnccn2)cc1` as the molecule, how does the Potency read?
Its Potency is inconclusive: 6.51 µM [activator, partial curve, poor fit].

With `Cc1cccc(N(CC(=O)NC2CCCCC2)C(=O)c2csnn2)c1` as the molecule, how does the Potency read?
Its Potency is inconclusive: 0.92 µM [activator, full curve].

With `Cc1ccc(C)c(NC(=O)N2CCN3CCCCC3C2)c1` (stereo not drawn) as the molecule, how does the Potency read?
The Potency was inconclusive: 32.6 µM [activator, single point].

Which Potency does the source give for `Cc1cc(C)cc(NC(=O)Cn2c(=O)oc3cc(S(=O)(=O)N4CCC(C)CC4)ccc32)c1` here?
Its Potency is inconclusive: 29.1 µM [falling, partial curve, poor fit].

Which Potency does the source give for `S=C(c1ccc(-c2ccccc2)cc1)N1CCOCC1` here?
Its Potency is inconclusive: 20.6 µM [falling, partial curve].

Which Potency does the source give for `CC(=O)Nc1ccc(/C(C)=N/NC(=O)c2ccc(CN3CCOCC3)cc2)cc1` here?
The Potency was “inactive”.

Which Potency does the source give for `CCC(=O)Nc1nnc(Sc2ccc(N(C)C)cc2)s1` here?
The Potency was inconclusive: 13 µM [falling, partial curve, poor fit].

Which Potency does the source give for `O=C(CCc1nnc(-c2ccc(-c3ccccc3)cc2)o1)NCCc1ccccn1` here?
The Potency was inconclusive: 0.731 µM [falling, full curve].

For `COc1cccc2cc(C(=O)Oc3ccccc3)c(=O)oc12`, which Potency is on record?
The Potency was inconclusive: 5.17 µM [activator, single point].

Which Potency does the source give for `NS(=O)(=O)c1ccc(CCNC(=O)c2ccccc2Cc2ccccc2)cc1` here?
The Potency was inconclusive: 29.1 µM [falling, partial curve, poor fit].

Which Potency does the source give for `N=c1sccn1CC(=O)Nc1ccc(SC(F)F)cc1` here?
The Potency was inconclusive: 20.6 µM [activator, partial curve].

Which Potency does the source give for `CC(OC(=O)Cc1n[nH]c(=O)c2ccccc12)C(=O)Nc1ccccc1[N+](=O)[O-]` (stereo not drawn) here?
Its Potency is inconclusive: 14.6 µM [falling, partial curve, poor fit].

For `COC(=O)C1=C(C)N(Cc2cccnc2)C(=O)/C1=C\c1sccc1C`, which Potency is on record?
The Potency was “inactive”.

Which Potency does the source give for `O=C(Nc1ccc(Cl)cc1)NC1CCCCC1Cc1ccco1` (stereo not drawn) here?
Its Potency is inconclusive: 29.1 µM [falling, single point].

Which Potency does the source give for `Cc1ccc(NC(=O)C2CCN(c3ncnc4c3nc3n4CCCCC3)CC2)cc1Cl` here?
Its Potency is active: 13 µM.

For `O=C(Nc1cccc(Cl)c1)c1cc(-c2ccc3c(c2)OCO3)on1`, which Potency is on record?
The Potency was inconclusive: 0.58 µM [activator, full curve].

With `Cc1ccc(C(=O)NCCc2ccc(S(N)(=O)=O)cc2)cc1[N+](=O)[O-]` as the molecule, how does the Potency read?
The Potency was inconclusive: 7.31 µM [activator, single point].

Which Potency does the source give for `COc1cc(OC)cc(C(=O)Nc2ccc3nc4n(c(=O)c3c2)CCCCC4)c1` here?
Its Potency is inconclusive: 29.1 µM [activator, single point] and inconclusive: 2.91 µM [activator, partial curve, poor fit].

With `COc1cccc(/C=N/NC(=O)CN(CCc2ccccc2)S(=O)(=O)c2ccc(NC(C)=O)cc2)c1` as the molecule, how does the Potency read?
Its Potency is inconclusive: 29.1 µM [falling, single point].

Which Potency does the source give for `COC(=O)C1C(O)=C(C=Nc2ccc(N)cc2)C(=O)CC1(C)C` (stereo not drawn) here?
The Potency was inconclusive: 29.1 µM [activator, single point].

With `Cc1ccc2nc(-c3cccc(S(=O)(=O)N(C)C)c3)cn2c1` as the molecule, how does the Potency read?
The Potency was inconclusive: 2.59 µM [activator, full curve].

For `CCOc1ccc(NC(=O)CN(C)C(=O)c2cccc3ccccc23)cc1OCC`, which Potency is on record?
Its Potency is “inactive”.

With `Fc1ccccc1-c1nc2ncccc2o1` as the molecule, how does the Potency read?
The Potency was inconclusive: 10.3 µM [activator, partial curve, poor fit].

With `COc1cccc(-n2nnc(-c3nc(-c4cccs4)no3)c2N)c1` as the molecule, how does the Potency read?
The Potency was inconclusive: 29.1 µM [activator, single point].

Which Potency does the source give for `COc1ccc(NS(=O)(=O)c2ccc3[nH]c(=O)ccc3c2)cc1OC` here?
Its Potency is inconclusive: 20.6 µM [falling, single point].

Which Potency does the source give for `C/C(=N\NC(=O)c1ccccc1O)c1cccc(NC(=O)c2ccccc2)c1` here?
The Potency was inconclusive: 32.6 µM [falling, single point].

For `CC(C)c1ccc(OCc2ccc(C(=O)O)o2)cc1`, which Potency is on record?
Its Potency is inconclusive: 0.651 µM [activator, full curve, poor fit].

With `CCOc1ccc(S(=O)(=O)Nc2cccc(OC)c2)c2cccnc12` as the molecule, how does the Potency read?
Its Potency is active: 14.6 µM.

With `FC(F)(F)c1cnc(-c2cnc(-c3cccnc3)nc2)c(Cl)c1` as the molecule, how does the Potency read?
Its Potency is inconclusive: 2.31 µM [activator, full curve, poor fit].

Which Potency does the source give for `Cc1ccccc1N(C(=O)Cn1nnc(-c2cccs2)n1)C(C(=O)NCCC(C)C)c1ccco1` (stereo not drawn) here?
Its Potency is inconclusive: 32.6 µM [falling, single point].

Which Potency does the source give for `CCn1c(CSc2nc3ccccc3s2)nc2ccccc21` here?
The Potency was inconclusive: 29.1 µM [falling, single point].

With `CC1CCc2c(sc(NS(=O)(=O)c3ccccc3)c2C(=O)OC(C)C)C1` (stereo not drawn) as the molecule, how does the Potency read?
The Potency was inconclusive: 29.1 µM [falling, single point].
